Laboratory results: article PMC11787194

Molecular target: T1, receptor-interacting protein 3 (RIP3) (rat (endogenous in CTX TNA2 astrocytes)) (UniProt Q9Z2P5)
T1 sequence: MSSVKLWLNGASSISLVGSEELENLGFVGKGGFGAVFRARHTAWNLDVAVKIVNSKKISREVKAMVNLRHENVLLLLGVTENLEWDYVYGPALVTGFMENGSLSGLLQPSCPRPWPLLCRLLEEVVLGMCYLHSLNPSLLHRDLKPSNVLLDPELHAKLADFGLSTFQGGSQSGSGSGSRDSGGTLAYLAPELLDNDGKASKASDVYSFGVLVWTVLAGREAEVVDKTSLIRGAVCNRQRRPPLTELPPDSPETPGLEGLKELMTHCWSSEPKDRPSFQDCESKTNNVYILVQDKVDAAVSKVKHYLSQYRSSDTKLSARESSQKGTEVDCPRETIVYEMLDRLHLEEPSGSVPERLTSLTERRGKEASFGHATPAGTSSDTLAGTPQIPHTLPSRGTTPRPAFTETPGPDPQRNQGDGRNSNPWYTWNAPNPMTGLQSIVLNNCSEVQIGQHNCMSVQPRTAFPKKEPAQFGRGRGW
Test: co-IP; cell lysates in IP buffer; anti-RIP3 antibody (1 ug) or normal IgG for 2 h at 4 °C, protein A/G agarose beads overnight at 4 °C; partners detected by immunoblot

binding | Substance
no binding | PML (rat (endogenous in CTX TNA2 astrocytes))
binds | ITCH (rat (endogenous in CTX TNA2 astrocytes))

These are yes or no findings as the source states them, for the method shown. In cells and extracts the contact can be indirect. Binding can be weak; no strength is given.
